PubChem BioAssay AID1259308, NCATS, 2017
Aim: 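Genes whose loss raises luciferase production in HEK293 cells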 (primary screen). System: human HEK293 embryonic kidney cells stably expressing firefly luciferase (HEK-CMV-Luc2-Hygro). Reagents: single siRNA against human genes, 0.8 pmol siRNA per well. Timing: 72 h. Read-out: 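Reporter luminescence and viable-cell signal on separate replicate plates, given as percent of non-targeting control and median/MAD z-scores, plus per-cell luciferase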. Scale: total luciferase, z-score and total luciferase, % of control: higher = more reporter protein produced. Hit rule: 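An siRNA counts as active if its total luciferase robust z-score exceeds 3; genes with two or more such siRNAs out of three were retested with fresh siRNAs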. Meaning of the calls: active = raised luciferase; inactive = no rise.
The deposit covers about 59,000 reagents; this is an unselected part. Of all reagents, about 1,510 (2.6%) were called active. 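Calls use total luciferase alone and ignore viability, so some active siRNAs may act by altering cell number.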 The numbers tell different reagents against one gene apart. Not all columns of the deposit are shown. No sequences are given here.

The first 2 records as a preview:
CTSB #1 | total luciferase, z-score = 0.215; total luciferase, % of control = 86.2; call = inactive
CTSB #2 | total luciferase, z-score = -0.112; total luciferase, % of control = 79.7; call = inactive

Results, from the first entry:
CTSB #1 | total luciferase, z-score = 0.215; total luciferase, % of control = 86.2; call = inactive
CTSB #2 | total luciferase, z-score = -0.112; total luciferase, % of control = 79.7; call = inactive
CTSB #3 | total luciferase, z-score = -1.67; total luciferase, % of control = 48.7; call = inactive
FOXO4 #1 | total luciferase, z-score = -1.01; total luciferase, % of control = 61.8; call = inactive
FOXO4 #2 | total luciferase, z-score = 3.81; total luciferase, % of control = 158; call = active
FOXO4 #3 | total luciferase, z-score = -0.511; total luciferase, % of control = 71.7; call = inactive
APLP2 #1 | total luciferase, z-score = -0.817; total luciferase, % of control = 65.6; call = inactive
APLP2 #2 | total luciferase, z-score = 1.73; total luciferase, % of control = 116; call = inactive
APLP2 #3 | total luciferase, z-score = 0.341; total luciferase, % of control = 88.7; call = inactive
RNF11 #1 | total luciferase, z-score = 0.191; total luciferase, % of control = 85.7; call = inactive
RNF11 #2 | total luciferase, z-score = 0.375; total luciferase, % of control = 89.3; call = inactive
RNF11 #3 | total luciferase, z-score = -0.461; total luciferase, % of control = 72.7; call = inactive
